Test results: article PMC5040591
These are yes or no findings as the source states them, for the method shown. Binding seen in cells or lysates may run through a third protein. These calls come from enrichment with a bait or labelling near it, and not all partners need be listed. Where a sequence is shown, tags or fusion partners need not be part of it.

Protein sequences, listed by entry. Tags and fused reporters are not part of them.
UniProt Q6EVK6: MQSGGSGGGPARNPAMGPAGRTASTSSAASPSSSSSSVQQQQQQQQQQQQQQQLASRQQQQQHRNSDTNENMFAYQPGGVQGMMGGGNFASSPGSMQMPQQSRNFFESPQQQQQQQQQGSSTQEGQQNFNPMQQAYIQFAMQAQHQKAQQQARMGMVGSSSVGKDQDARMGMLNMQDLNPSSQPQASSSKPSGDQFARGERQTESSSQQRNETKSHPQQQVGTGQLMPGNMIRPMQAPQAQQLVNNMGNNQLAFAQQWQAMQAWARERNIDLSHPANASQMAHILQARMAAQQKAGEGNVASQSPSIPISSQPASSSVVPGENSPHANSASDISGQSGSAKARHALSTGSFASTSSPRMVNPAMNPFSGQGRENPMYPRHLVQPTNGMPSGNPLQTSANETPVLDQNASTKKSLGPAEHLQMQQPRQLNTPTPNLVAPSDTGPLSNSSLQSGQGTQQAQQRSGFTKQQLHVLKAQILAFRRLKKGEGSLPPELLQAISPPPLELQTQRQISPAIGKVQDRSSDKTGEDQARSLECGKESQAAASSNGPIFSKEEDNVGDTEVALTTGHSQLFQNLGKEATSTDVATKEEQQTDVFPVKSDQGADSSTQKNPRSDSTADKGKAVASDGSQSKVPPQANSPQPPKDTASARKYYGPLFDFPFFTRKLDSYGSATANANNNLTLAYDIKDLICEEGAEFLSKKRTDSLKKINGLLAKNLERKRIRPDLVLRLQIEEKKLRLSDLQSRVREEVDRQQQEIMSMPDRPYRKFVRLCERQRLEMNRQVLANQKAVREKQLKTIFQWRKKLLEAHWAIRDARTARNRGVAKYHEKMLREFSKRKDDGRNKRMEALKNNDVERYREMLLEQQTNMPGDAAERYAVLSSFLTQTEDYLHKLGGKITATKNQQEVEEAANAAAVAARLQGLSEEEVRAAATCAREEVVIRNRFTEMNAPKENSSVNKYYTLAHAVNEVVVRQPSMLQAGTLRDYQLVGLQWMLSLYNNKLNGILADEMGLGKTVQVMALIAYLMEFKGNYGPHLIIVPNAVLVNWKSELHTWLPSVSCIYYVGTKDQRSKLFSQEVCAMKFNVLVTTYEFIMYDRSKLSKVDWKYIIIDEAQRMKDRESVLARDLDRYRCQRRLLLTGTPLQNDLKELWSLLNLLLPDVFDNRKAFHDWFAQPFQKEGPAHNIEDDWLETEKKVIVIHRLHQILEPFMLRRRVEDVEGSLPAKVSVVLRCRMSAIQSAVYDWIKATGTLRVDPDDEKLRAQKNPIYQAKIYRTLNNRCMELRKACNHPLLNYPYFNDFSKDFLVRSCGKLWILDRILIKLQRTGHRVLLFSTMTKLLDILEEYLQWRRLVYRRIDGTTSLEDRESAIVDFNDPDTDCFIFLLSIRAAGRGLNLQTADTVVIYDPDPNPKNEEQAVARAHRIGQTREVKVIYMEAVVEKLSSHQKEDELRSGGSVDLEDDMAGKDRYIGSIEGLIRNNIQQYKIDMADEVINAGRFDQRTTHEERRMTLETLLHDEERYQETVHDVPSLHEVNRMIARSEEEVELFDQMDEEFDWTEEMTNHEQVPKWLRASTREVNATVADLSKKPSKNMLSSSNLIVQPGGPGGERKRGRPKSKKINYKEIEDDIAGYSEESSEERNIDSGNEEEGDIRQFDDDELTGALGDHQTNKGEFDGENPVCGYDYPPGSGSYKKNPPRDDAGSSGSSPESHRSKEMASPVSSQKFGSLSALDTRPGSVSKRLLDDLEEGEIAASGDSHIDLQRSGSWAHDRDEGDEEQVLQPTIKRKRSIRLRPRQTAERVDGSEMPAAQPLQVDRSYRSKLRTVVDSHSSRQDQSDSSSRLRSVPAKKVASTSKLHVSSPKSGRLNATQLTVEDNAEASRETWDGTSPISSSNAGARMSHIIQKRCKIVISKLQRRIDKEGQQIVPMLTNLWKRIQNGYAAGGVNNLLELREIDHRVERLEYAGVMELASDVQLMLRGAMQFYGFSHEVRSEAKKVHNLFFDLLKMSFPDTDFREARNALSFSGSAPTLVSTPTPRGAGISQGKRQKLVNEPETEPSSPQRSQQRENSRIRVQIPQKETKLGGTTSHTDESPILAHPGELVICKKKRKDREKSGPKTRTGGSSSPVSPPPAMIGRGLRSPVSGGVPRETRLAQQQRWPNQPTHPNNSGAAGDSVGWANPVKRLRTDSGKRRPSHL
UniProt Q8RWY3: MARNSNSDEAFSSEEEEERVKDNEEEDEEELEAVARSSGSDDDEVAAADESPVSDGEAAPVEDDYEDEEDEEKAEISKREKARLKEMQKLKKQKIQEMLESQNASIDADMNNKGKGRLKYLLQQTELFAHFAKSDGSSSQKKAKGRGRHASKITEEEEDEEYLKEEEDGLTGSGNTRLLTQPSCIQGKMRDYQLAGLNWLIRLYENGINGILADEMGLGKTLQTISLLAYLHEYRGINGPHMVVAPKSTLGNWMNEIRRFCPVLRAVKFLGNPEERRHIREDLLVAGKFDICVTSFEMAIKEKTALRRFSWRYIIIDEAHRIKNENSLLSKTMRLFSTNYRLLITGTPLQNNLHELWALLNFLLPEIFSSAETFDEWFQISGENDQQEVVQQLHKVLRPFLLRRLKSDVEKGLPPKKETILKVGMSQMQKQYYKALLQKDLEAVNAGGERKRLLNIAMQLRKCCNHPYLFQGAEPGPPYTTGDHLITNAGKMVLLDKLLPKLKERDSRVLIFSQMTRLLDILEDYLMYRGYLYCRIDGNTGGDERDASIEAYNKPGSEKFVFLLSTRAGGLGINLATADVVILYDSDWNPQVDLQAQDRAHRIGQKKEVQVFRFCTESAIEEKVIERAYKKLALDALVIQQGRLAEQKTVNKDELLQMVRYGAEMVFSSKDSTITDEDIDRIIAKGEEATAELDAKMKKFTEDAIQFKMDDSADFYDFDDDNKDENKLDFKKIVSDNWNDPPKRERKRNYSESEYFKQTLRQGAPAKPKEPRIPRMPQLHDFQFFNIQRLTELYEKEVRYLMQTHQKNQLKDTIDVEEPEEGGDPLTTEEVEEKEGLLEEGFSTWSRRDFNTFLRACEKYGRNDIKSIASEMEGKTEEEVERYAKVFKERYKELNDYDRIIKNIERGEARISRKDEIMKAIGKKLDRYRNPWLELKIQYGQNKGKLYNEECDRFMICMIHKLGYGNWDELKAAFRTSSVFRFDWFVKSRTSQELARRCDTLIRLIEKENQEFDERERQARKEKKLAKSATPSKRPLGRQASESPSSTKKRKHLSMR
UniProt F4JY24: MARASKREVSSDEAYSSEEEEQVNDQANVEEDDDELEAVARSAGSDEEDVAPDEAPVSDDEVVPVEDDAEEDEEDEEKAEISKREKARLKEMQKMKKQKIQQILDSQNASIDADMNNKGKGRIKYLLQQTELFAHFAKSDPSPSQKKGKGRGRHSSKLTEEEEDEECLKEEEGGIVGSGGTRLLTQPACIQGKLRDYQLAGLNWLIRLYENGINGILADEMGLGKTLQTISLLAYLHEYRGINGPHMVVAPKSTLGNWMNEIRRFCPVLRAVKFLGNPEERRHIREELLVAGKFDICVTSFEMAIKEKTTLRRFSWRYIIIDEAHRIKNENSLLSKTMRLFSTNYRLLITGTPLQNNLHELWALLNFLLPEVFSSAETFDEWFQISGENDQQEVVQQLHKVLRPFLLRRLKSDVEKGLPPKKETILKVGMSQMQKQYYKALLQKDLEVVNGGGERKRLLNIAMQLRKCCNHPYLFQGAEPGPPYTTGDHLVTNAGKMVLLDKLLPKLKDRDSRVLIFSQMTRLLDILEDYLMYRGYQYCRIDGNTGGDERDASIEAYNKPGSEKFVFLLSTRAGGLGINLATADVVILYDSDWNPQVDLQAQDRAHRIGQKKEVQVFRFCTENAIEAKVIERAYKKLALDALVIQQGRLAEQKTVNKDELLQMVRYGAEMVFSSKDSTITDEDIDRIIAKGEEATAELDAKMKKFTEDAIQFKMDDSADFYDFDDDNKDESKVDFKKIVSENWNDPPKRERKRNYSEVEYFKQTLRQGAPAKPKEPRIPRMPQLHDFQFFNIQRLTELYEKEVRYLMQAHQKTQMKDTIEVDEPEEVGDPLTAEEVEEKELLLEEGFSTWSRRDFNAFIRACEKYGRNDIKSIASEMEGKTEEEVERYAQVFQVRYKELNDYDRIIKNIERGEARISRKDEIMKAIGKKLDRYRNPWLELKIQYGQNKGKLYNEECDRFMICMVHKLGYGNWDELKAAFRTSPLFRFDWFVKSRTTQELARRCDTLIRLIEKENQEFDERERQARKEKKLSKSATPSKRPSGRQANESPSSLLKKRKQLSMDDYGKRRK

T1: FGT1-YFP fusion protein (35S::FGT1-YFP) (A. thaliana) (UniProt F4IF36)
T1 sequence: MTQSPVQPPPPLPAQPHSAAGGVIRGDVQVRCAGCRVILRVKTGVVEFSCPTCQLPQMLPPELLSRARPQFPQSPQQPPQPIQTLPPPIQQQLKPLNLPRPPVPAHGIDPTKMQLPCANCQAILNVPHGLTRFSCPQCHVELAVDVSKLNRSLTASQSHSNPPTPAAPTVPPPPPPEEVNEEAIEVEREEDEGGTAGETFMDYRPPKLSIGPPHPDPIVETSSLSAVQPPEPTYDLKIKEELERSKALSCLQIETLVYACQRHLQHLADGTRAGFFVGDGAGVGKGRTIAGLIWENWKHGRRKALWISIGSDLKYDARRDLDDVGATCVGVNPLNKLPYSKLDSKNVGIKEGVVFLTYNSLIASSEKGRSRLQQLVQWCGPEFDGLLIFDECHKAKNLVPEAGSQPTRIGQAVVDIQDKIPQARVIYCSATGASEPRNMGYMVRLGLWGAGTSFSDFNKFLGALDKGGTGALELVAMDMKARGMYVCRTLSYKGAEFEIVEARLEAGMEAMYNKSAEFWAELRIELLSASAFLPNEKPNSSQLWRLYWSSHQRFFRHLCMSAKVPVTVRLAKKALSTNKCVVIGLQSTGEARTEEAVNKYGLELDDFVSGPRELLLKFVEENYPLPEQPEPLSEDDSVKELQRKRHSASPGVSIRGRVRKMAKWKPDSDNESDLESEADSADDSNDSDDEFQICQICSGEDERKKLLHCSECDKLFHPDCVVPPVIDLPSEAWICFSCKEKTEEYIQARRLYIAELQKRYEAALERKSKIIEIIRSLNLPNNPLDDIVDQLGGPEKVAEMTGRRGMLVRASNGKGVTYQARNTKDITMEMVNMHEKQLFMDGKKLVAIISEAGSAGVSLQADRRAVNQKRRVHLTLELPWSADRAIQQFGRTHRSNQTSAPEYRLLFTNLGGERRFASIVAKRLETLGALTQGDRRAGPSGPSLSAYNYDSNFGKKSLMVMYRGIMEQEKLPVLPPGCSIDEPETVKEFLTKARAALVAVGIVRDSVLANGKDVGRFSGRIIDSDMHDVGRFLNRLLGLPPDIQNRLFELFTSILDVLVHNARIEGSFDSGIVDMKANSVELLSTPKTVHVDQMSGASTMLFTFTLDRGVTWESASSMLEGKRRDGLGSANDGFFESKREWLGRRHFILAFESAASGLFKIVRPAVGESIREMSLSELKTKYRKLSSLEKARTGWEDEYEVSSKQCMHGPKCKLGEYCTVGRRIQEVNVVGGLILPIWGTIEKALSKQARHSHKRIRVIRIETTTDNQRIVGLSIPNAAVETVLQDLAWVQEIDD

B1: SWI3d (protein, UniProt Q8VY05 1-985)
chain: MEEKRRDSAGTLAFAGSSGDSPASEPMPAPRRRGGGLKRKANALGGSNFFSSAPSKRMLTREKAMLASFSPVHNGPLTRARQAPSIMPSAADGVKSEVLNVAVGADGEKPKEEEERNKAIREWEALEAKIEADFEAIRSRDSNVHVVPNHCGWFSWEKIHPLEERSLPSFFNGKLEGRTSEVYREIRNWIMGKFHSNPNIQIELKDLTELEVGDSEAKQEVMEFLDYWGLINFHPFPPTDTGSTASDHDDLGDKESLLNSLYRFQVDEACPPLVHKPRFTAQATPSGLFPDPMAADELLKQEGPAVEYHCNSCSADCSRKRYHCPKQADFDLCTECFNSGKFSSDMSSSDFILMEPAEAPGVGSGKWTDQETLLLLEALEIFKENWNEIAEHVATKTKAQCMLHFLQMPIEDAFLDQIDYKDPISKDTTDLAVSKDDNSVLKDAPEEAENKKRVDEDETMKEVPEPEDGNEEKVSQESSKPGDASEETNEMEAEQKTPKLETAIEERCKDEADENIALKALTEAFEDVGHSSTPEASFSFADLGNPVMGLAAFLVRLAGSDVATASARASIKSLHSNSGMLLATRHCYILEDPPDNKKDPTKSKSCSADAEGNDDNSHKDDQPEEKSKKAEEVSLNSDDREMPDTDTGKETQDSVSEEKQPGSRTENSTTKLDAVQEKRSSKPVTTDNSEKPVDIICPSQDKCSGKELQEPLKDGNKLSSENKDASQSTVSQSAADASQPEASRDVEMKDTLQSEKDPEDVVKTVGEKVQLAKEEGANDVLSTPDKSVSQQPIGSASAPENGTAGGNPNIEGKKEKDICEGTKDKYNIEKLKRAAISAISAAAVKAKNLAKQEEDQIRQLSGSLIEKQLHKLEAKLSIFNEAESLTMRVREQLERSRQRLYHERAQIIAARLGVPPSMSSKASLPTNRIAANFANVAQRPPMGMAFPRPPMPRPPGFPVPGSFVAATTMTGSSDPSPGSDNVSSV

Molecular target: T1, FGT1-YFP fusion protein (35S::FGT1-YFP) (A. thaliana)
Assay: affinity purification with mass spectrometry; native FGT1-YFP complexes from nuclear extracts of 35S::FGT1-YFP seedlings 28 h after ACC or NHS, α-GFP paramagnetic beads 1.5 h at 4°C, elution in 8 M urea, trypsin digest, nHPLC-MS/MS; controls 35S::YFP and Col-0

Question: For “BRAHMA (BRM) (from UniProt Q6EVK6 1-2193)”, which binding is on record?
Answer: binds

Question: For CHR11 (from UniProt Q8RWY3 1-1056), which binding is on record?
Answer: binds

Question: For CHR17 (from UniProt F4JY24 1-1069), which binding is on record?
Answer: binds

Question: “SWP73b (A. thaliana (endogenous in seedlings))” was tested. Which binding did it give?
Answer: binds

Question: Which binding does the source give for B1 here?
Answer: binds
